# According to the supplement of paper PMC4604168 (melanoma cell lines):
# The other results are listed elsewhere or left out. Repeats are few or missing, and single values can be far off.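 The apoptosis fraction was the count of cleaved-PARP antibody-stained nuclei relative to all DNA-stained nuclei, imaged in 1,536-well plates. Screening doses were set so most cells survived, and baseline and induced cleaved-PARP levels vary greatly across cell lines.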
# What was measured:
# Test in all cases: cleaved PARP positive nuclei fraction relative to DMSO control; melanoma cells; higher = more apoptosis
# Settings in all cases: library dose: low library concentration; 72 h
# [1] = tested on: MZ2-MEL
# [2] = tested on: MeWo
# [3] = tested on: RPMI7951
# [4] = tested on: RVH-421
# [5] = tested on: SkMel28
# [6] = tested on: SkMel2
# [7] = tested on: SkMel30
# [8] = tested on: UACC62
Structure (SMILES),cleaved PARP positive nuclei fraction [1] [%],cleaved PARP positive nuclei fraction [2] [%],cleaved PARP positive nuclei fraction [3] [%],cleaved PARP positive nuclei fraction [4] [%],cleaved PARP positive nuclei fraction [5] [%],cleaved PARP positive nuclei fraction [6] [%],cleaved PARP positive nuclei fraction [7] [%],cleaved PARP positive nuclei fraction [8] [%]
"N#CC[C@H](C1CCCC1)n1cc(-c2ncnc3[nH]ccc23)cn1 [ruxolitinib] + Cn1cc(C2=C(c3cn(C4CCN(Cc5ccccn5)CC4)c4ccccc34)C(=O)NC2=O)c2ccccc21 [Enzastaurin] (first compound 1 µM, partner dose 0.8 µM)",90.5,71.4,150,80.3,144,62.8,43.9,44.2
"Nc1ncn([C@H]2C[C@H](O)[C@@H](CO)O2)c(=O)n1 [decitabine] + C[As](C)SC[C@H](NC(=O)CC[C@H](N)C(=O)O)C(=O)NCC(=O)O [Darinaparsin] (first compound 0.1 µM, partner dose 0.4 µM)",116,36.9,89.2,152,96.2,95.7,103,199
"CCCCCCCCCCCCCCCCCCOP(=O)([O-])OC1CC[N+](C)(C)CC1 [Perifosine] + C[As](C)SC[C@H](NC(=O)CC[C@H](N)C(=O)O)C(=O)NCC(=O)O [Darinaparsin] (first compound 0.4 µM, partner dose 0.4 µM)",28.7,138,57.3,151,30.9,72.8,78.4,97.9
"COc1cc([C@@H]2c3cc4c(cc3[C@@H](O[C@@H]3O[C@@H]5CO[C@@H](C)O[C@H]5[C@H](O)[C@H]3O)[C@H]3COC(=O)[C@H]23)OCO4)cc(OC)c1O [etoposide] + Cn1cc(C2=C(c3cn(C4CCN(Cc5ccccn5)CC4)c4ccccc34)C(=O)NC2=O)c2ccccc21 [Enzastaurin] (first compound 0.02 µM, partner dose 0.8 µM)",59.3,59.8,78.1,132,45.5,70.3,65.6,47.4
"N.N.[Cl][Pt][Cl] [cisplatin] + O=C(O)[C@@H]1[O][Sb](=[O])([O][Sb]2(=[O])[O][C@H]([C@H](O)CO)[C@H](O)[C@H](C(=O)O)[O]2)[O][C@H]([C@H](O)CO)[C@@H]1O [stibogluconate] (first compound 1.6 µM, partner dose 2 µM)",40.4,135,108,64.4,58.9,122,34.5,150
"Cn1cc(C2=C(c3cn(C4CCN(Cc5ccccn5)CC4)c4ccccc34)C(=O)NC2=O)c2ccccc21 [Enzastaurin] + Cc1nc(Nc2ncc(C(=O)Nc3c(C)cccc3Cl)s2)cc(N2CCN(CCO)CC2)n1 [dasatanib] (first compound 0.8 µM, partner dose 0.004 µM)",83.1,59,175,182,90.1,248,41.5,90.1
"Cn1cc(C2=C(c3cn(C4CCN(Cc5ccccn5)CC4)c4ccccc34)C(=O)NC2=O)c2ccccc21 [Enzastaurin] + Clc1ccc(Nc2nnc(Cc3ccncc3)c3ccccc23)cc1 [vatalanib] (first compound 0.8 µM, partner dose 2 µM)",135,65.2,49.3,97.4,38.3,103,124,83.1
"CC(C)C[C@H](NC(=O)[C@H](Cc1ccccc1)NC(=O)c1cnccn1)B(O)O [Bortezomib] + N.N.[Cl][Pt][Cl] [cisplatin] (first compound 0.001 µM, partner dose 1.6 µM)",220,148,134,243,74,67.2,102,50.8
"N.N.[Cl][Pt][Cl] [cisplatin] + Nc1cccc2c1CN(C1CCC(=O)NC1=O)C2=O [lenalidomide] (first compound 1.6 µM, partner dose 1 µM)",167,71.5,115,134,77.6,151,64.2,85.1
"Cn1cc(C2=C(c3cn(C4CCN(Cc5ccccn5)CC4)c4ccccc34)C(=O)NC2=O)c2ccccc21 [Enzastaurin] + CCCS(=O)(=O)Nc1ccc(F)c(C(=O)c2c[nH]c3ncc(Cl)cc23)c1F [PLX4720] (first compound 0.8 µM, partner dose 0.08 µM)",51.7,47.6,175,155,43.6,416,64.2,289
"Cn1cc(C2=C(c3cn(C4CCN(Cc5ccccn5)CC4)c4ccccc34)C(=O)NC2=O)c2ccccc21 [Enzastaurin] + O=C(O)c1ccc2c(c1)nc(Nc1cccc(Cl)c1)c1ccncc12 [CX4945] (first compound 0.8 µM, partner dose 0.4 µM)",60,86.2,164,151,70,225,196,125
"Cn1cc(C2=C(c3cn(C4CCN(Cc5ccccn5)CC4)c4ccccc34)C(=O)NC2=O)c2ccccc21 [Enzastaurin] + CN(c1ncccc1CNc1nc(Nc2ccc3c(c2)CC(=O)N3)ncc1C(F)(F)F)S(C)(=O)=O [PF562271] (first compound 0.8 µM, partner dose 0.08 µM)",211,112,209,80.1,69.6,87.3,69.1,54.5
"Nc1ccn([C@@H]2O[C@H](CO)[C@@H](O)C2(F)F)c(=O)n1 [gemcitabine] + C[As](C)SC[C@H](NC(=O)CC[C@H](N)C(=O)O)C(=O)NCC(=O)O [Darinaparsin] (first compound 0.0004 µM, partner dose 0.4 µM)",187,115,155,58.3,41.6,135,81.7,66.2
"O=C(Nc1cc(C(F)(F)F)cc(C(F)(F)F)c1)c1cc(Cl)ccc1O + Cn1cc(C2=C(c3cn(C4CCN(Cc5ccccn5)CC4)c4ccccc34)C(=O)NC2=O)c2ccccc21 [Enzastaurin] (first compound 0.016 µM, partner dose 0.8 µM)",52.8,116,55.3,48.9,127,130,48.3,42.8
"Cn1cc(C2=C(c3cn(C4CCN(Cc5ccccn5)CC4)c4ccccc34)C(=O)NC2=O)c2ccccc21 [Enzastaurin] + CN1CCN(c2ccc3nc(-c4c(N)c5c(F)cccc5[nH]c4=O)[nH]c3c2)CC1 [Dovitinib] (first compound 0.8 µM, partner dose 0.1 µM)",43.9,51.8,94.2,166,86.1,427,105,90.8
"O=C(/C=C/c1cccnc1)NCCCCC1CCN(C(=O)c2ccccc2)CC1 + C[As](C)SC[C@H](NC(=O)CC[C@H](N)C(=O)O)C(=O)NCC(=O)O [Darinaparsin] (first compound 0.01 µM, partner dose 0.4 µM)",384,128,66.5,275,40.8,878,67.6,45.4
"CNC(=O)c1cc(Oc2ccc(NC(=O)Nc3ccc(Cl)c(C(F)(F)F)c3)cc2)ccn1 [sorafenib] + C[As](C)SC[C@H](NC(=O)CC[C@H](N)C(=O)O)C(=O)NCC(=O)O [Darinaparsin] (first compound 0.4 µM, partner dose 0.4 µM)",161,111,103,125,40.6,42,41.1,169
"N.N.[Cl][Pt][Cl] [cisplatin] + Cn1nnc2c(C(N)=O)ncn2c1=O [temozolomide] (first compound 1.6 µM, partner dose 2 µM)",102,69.3,43.4,111,201,60.5,18.7,134
"CCN(CC)CCNC(=O)c1c(C)[nH]c(/C=C2\C(=O)Nc3ccc(F)cc32)c1C [sunitinib] + C[As](C)SC[C@H](NC(=O)CC[C@H](N)C(=O)O)C(=O)NCC(=O)O [Darinaparsin] (first compound 0.4 µM, partner dose 0.4 µM)",69.9,183,66.3,185,26.9,49.4,102,63.2
"Cc1ccc(Nc2nccc(N(C)c3ccc4c(C)n(C)nc4c3)n2)cc1S(N)(=O)=O [Pazopanib] + C[As](C)SC[C@H](NC(=O)CC[C@H](N)C(=O)O)C(=O)NCC(=O)O [Darinaparsin] (first compound 0.4 µM, partner dose 0.4 µM)",29.7,125,164,89.2,87.2,169,52,94.8
"Cn1cnc2c(F)c(Nc3ccc(Br)cc3Cl)c(C(=O)NOCCO)cc21 [selumetinib] + N.N.[Cl][Pt][Cl] [cisplatin] (first compound 0.015 µM, partner dose 1.6 µM)",171,126,109,111,91.1,116,22.6,148

# Individual results from the results shown.
# cleaved PARP positive nuclei fraction [3] [%], CCN(CC)CCNC(=O)c1c(C)[nH]c(/C=C2\C(=O)Nc3ccc(F)cc32)c1C [sunitinib] + C[As](C)SC[C@H](NC(=O)CC[C@H](N)C(=O)O)C(=O)NCC(=O)O [Darinaparsin] (first compound 0.4 µM, partner dose 0.4 µM) is entered as 66.3
# cleaved PARP positive nuclei fraction [6] [%], Nc1ncn([C@H]2C[C@H](O)[C@@H](CO)O2)c(=O)n1 [decitabine] + C[As](C)SC[C@H](NC(=O)CC[C@H](N)C(=O)O)C(=O)NCC(=O)O [Darinaparsin] (first compound 0.1 µM, partner dose 0.4 µM) is entered as 95.7
